In PubChem BioAssay AID434947 (Broad Institute, 2010):
In all, about 2,200 compounds went through this assay and about 15 (0.7%) were called active.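 The calls were made as follows: active = fitted half-maximal concentration for loss of luminescence signal no more than a set limit of log units above the top tested concentration; inconclusive = flat fit with 30 to 70% signal loss, or invalid fit; inactive = half-maximal concentration above that set limit.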 The list shows a part of the results.

assay: inhibitors of ADP-Glo detection reagents, dose response, artefact control for GSK3beta inhibitor project, biochemical, luminescence, cell-free, homogeneous (AID 434947); conditions: 5 uM ADP;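 also: kinase-free counter screen of ADP-Glo detection reagents for GSK3beta hits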

Question: For CN1CCc2c(sc(NC(=O)Cc3ccccc3)c2C(N)=O)C1, which EC50 is on record?
Answer: Its EC50 is inactive: > 30 µM.

Question: For O=C(O)Cn1cc(/C=N/Nc2ccc([N+](=O)[O-])cn2)c2ccccc21, which EC50 is on record?
Answer: The EC50 was inactive: > 30 µM.

Question: With Cc1cc(C)n2nc(C(=O)N/N=C/c3ccc(O)cc3)nc2n1 as the compound, how does the EC50 read?
Answer: Its EC50 is inactive: > 30 µM.

Question: For Nc1nonc1-n1nnc(C(=O)N/N=C/c2ccccn2)c1-c1ccccc1, which EC50 is on record?
Answer: The EC50 was inactive: > 30 µM.

Question: With O=C1NCCCc2c1oc1cc(Br)c(O)c(Br)c21 as the compound, how does the EC50 read?
Answer: The EC50 was inactive: > 30 µM.

Question: With COc1cccc(CCNC(=O)c2ccc(C#N)cc2)c1 as the compound, how does the EC50 read?
Answer: Its EC50 is inactive: > 30 µM.

Question: For CCOC(=O)c1nnn(CC(=O)Nc2cccc(OC)c2)c1C(=O)OCC, which EC50 is on record?
Answer: Its EC50 is inactive: > 30 µM.

Question: For Cc1ccccc1/C=N/Nc1ncnc2nc[nH]c12, which EC50 is on record?
Answer: The EC50 was inactive: > 30 µM.

Question: For COc1cccc(/C=N/Nc2cc(Cl)nc(C)n2)c1O, which EC50 is on record?
Answer: The EC50 was inactive: > 30 µM.

Question: For CN(C)c1ccc(C(=O)NN2C(=O)c3ccccc3C2=O)cc1, which EC50 is on record?
Answer: Its EC50 is inactive: > 30 µM.

Question: With Cc1ccc(S(=O)(=O)NCC2COc3ccccc3O2)cc1 (stereo unspecified) as the compound, how does the EC50 read?
Answer: Its EC50 is inactive: > 30 µM.

Question: For COc1ccc(/C=C(/NC(=O)c2ccccc2)C(=O)N/N=C/c2ccncc2)c(OC)c1, which EC50 is on record?
Answer: Its EC50 is inactive: > 30 µM.

Question: With COc1ccccc1NC(=O)C(C)Nc1ccc(C)c(Cl)c1 (stereo unspecified) as the compound, how does the EC50 read?
Answer: The EC50 was inactive: > 30 µM.

Question: With COc1ccc(C(=O)c2coc3ccc(O)c(CN(C)C)c23)cc1 as the compound, how does the EC50 read?
Answer: Its EC50 is inactive: > 30 µM.

Question: For CCOC(=O)C1=C(C)Nc2ncnn2C1c1cc(Br)ccc1F (stereo unspecified), which EC50 is on record?
Answer: The EC50 was inactive: > 30 µM.

Question: Which EC50 does the source give for C[C@@H]1O[C@@H](Oc2c(-c3cc(O)c(O)c(O)c3)oc3cc(O)cc(O)c3c2=O)[C@H](O)[C@H](O)[C@H]1O here?
Answer: Its EC50 is inactive: > 30 µM.

Question: Which EC50 does the source give for CCCc1c(C(=O)N/N=C/c2ccncc2)nnn1-c1nonc1N here?
Answer: Its EC50 is inactive: > 30 µM.

Question: Which EC50 does the source give for COc1ccccc1-c1ccc(=O)n(CC(=O)NCc2ccco2)n1 here?
Answer: The EC50 was inactive: > 30 µM.

Question: With CCN1CCN(Cc2c(O)ccc3c2O/C(=C\C=C\c2ccccc2)C3=O)CC1 as the compound, how does the EC50 read?
Answer: The EC50 was inactive: > 30 µM.

Question: For COc1ccc(-c2nn(-c3ccccc3)cc2/C=C/C(=O)N2CCOCC2)cc1OC, which EC50 is on record?
Answer: Its EC50 is inactive: > 30 µM.

Question: For Fc1ccc(CSc2ccc3nnc(-c4cccs4)n3n2)cc1, which EC50 is on record?
Answer: Its EC50 is inactive: > 30 µM.

Question: With C=CCN=C(NC#N)SCC(=O)c1cccc(OC)c1 as the compound, how does the EC50 read?
Answer: Its EC50 is inactive: > 30 µM.

Question: With Cc1nn(-c2ccccn2)c2c1C(c1ccsc1)C1=C(CCCC1=O)N2 (stereo unspecified) as the compound, how does the EC50 read?
Answer: The EC50 was inactive: > 30 µM.

Question: With Cc1ccc(C(=O)c2coc3ccc(O)c(CN(C)C)c23)cc1 as the compound, how does the EC50 read?
Answer: The EC50 was inactive: > 30 µM.

Question: For CC1=C(C(=O)OCc2ccccc2)C(c2ccco2)n2ncnc2N1 (stereo unspecified), which EC50 is on record?
Answer: The EC50 was inactive: > 30 µM.

Question: Which EC50 does the source give for COC(=O)CCC(=O)Oc1ccc(OC(=O)CCC(=O)OC)cc1 here?
Answer: The EC50 was inactive: > 30 µM.

Question: For COc1ccc(C(O)c2coc3ccc(O)c(CN(C)C)c23)cc1 (stereo unspecified), which EC50 is on record?
Answer: Its EC50 is inactive: > 30 µM.

Question: For COc1ccc(-c2nn(-c3ccccc3)cc2/C=C(\C#N)S(=O)(=O)c2ccccc2)cc1OC, which EC50 is on record?
Answer: The EC50 was inactive: > 30 µM.

Question: Which EC50 does the source give for COc1ccc(CNC(=O)CN(Cc2ccccc2)C(=O)CCC(=O)Nc2nccs2)cc1 here?
Answer: The EC50 was inactive: > 30 µM.

Question: For COc1ccc(Nc2nc(N)c(C(=O)c3ccc(OC)cc3)s2)cc1, which EC50 is on record?
Answer: Its EC50 is inactive: > 30 µM.

Question: For Cc1cc(-c2[nH]nc3c2C(c2cccc(O)c2)C(C#N)=C(N)O3)c(C)s1 (stereo unspecified), which EC50 is on record?
Answer: The EC50 was inactive: > 30 µM.

Question: With CCC(=O)Nc1sc2c(c1C(N)=O)CCN(Cc1ccccc1)C2 as the compound, how does the EC50 read?
Answer: Its EC50 is inactive: > 30 µM.

Question: With O=C(O)COc1ccc2oc3ccccc3c2c1 as the compound, how does the EC50 read?
Answer: Its EC50 is inactive: > 30 µM.

Question: With O=C(CSc1nnc(-c2ccco2)n1Cc1ccco1)N1CCOCC1 as the compound, how does the EC50 read?
Answer: The EC50 was inactive: > 30 µM.

Question: With O=C(Nc1ncc([N+](=O)[O-])s1)c1ccco1 as the compound, how does the EC50 read?
Answer: The EC50 was inactive: > 30 µM.

Question: With CCCC1=C(C(=O)OCC)C(c2ccco2)n2ncnc2N1 (stereo unspecified) as the compound, how does the EC50 read?
Answer: The EC50 was inactive: > 30 µM.

Question: For CCNc1nc(N)c(C(=C(C#N)C#N)c2ccccc2)s1, which EC50 is on record?
Answer: The EC50 was inactive: > 30 µM.

Question: For O=C(OCc1ccc(COC(=O)c2ccc(O)cc2)cc1)c1ccc(O)cc1, which EC50 is on record?
Answer: The EC50 was inactive: > 30 µM.

Question: With COc1ccc(Cl)cc1NC(=O)CS(=O)(=O)c1cccc2nsnc12 as the compound, how does the EC50 read?
Answer: The EC50 was inactive: > 30 µM.

Question: For CCOc1ccc(C(=O)NCC(=O)OCc2c(C)noc2C)cc1, which EC50 is on record?
Answer: The EC50 was inactive: > 30 µM.

Question: For CCSc1nc(N)nc(-c2cccs2)c1C#N, which EC50 is on record?
Answer: The EC50 was inactive: > 30 µM.

Question: With COc1ccc(-c2nn(-c3ccccc3)cc2CO)cc1 as the compound, how does the EC50 read?
Answer: Its EC50 is inactive: > 30 µM.

Question: With COc1ccc(-c2nn(-c3ccccc3)cc2/C=N/O)cc1 as the compound, how does the EC50 read?
Answer: The EC50 was inactive: > 30 µM.

Question: With Nc1nc(NCCCN2CCOCC2)nc(Nc2cccc(F)c2)c1[N+](=O)[O-] as the compound, how does the EC50 read?
Answer: Its EC50 is inactive: > 30 µM.

Question: Which EC50 does the source give for Cc1cccc(/C=C2/Sc3ccc(C(=O)NCCCN4CCOCC4)cc3NC2=O)c1 here?
Answer: The EC50 was inactive: > 10 µM.

Question: For CC(C)c1ccc(NS(=O)(=O)c2ccc(Cl)nc2)cc1, which EC50 is on record?
Answer: Its EC50 is inactive: > 30 µM.

Question: For Nc1ncnc(Nc2cccc(C(F)(F)F)c2)n1, which EC50 is on record?
Answer: Its EC50 is inactive: > 30 µM.

Question: For CCN1CCN(c2c(C=O)c(Cl)nc3ccc(OC)cc23)CC1, which EC50 is on record?
Answer: Its EC50 is inactive: > 30 µM.

Question: Which EC50 does the source give for Cc1ccc(CNc2nc(N)c([N+](=O)[O-])c(NCCO)n2)cc1 here?
Answer: Its EC50 is inactive: > 30 µM.

Question: For c1cc(CSc2nnc(-c3ccc4c(c3)OCO4)o2)ccn1, which EC50 is on record?
Answer: Its EC50 is inactive: > 30 µM.

Question: Which EC50 does the source give for Cc1nc(Nc2ccccc2)sc1C here?
Answer: Its EC50 is inactive: > 30 µM.

Question: For CCn1c(SCC(=O)Nc2ccc(N(C)C)cc2)nnc1C1CC1, which EC50 is on record?
Answer: The EC50 was inactive: > 30 µM.

Question: With Cc1cc2c(Nc3ccc(O)cc3)ncnc2s1 as the compound, how does the EC50 read?
Answer: The EC50 was inactive: > 30 µM.

Question: Which EC50 does the source give for O=C(Nc1ccc([N+](=O)[O-])cn1)C1CC1 here?
Answer: The EC50 was inactive: > 30 µM.

Question: Which EC50 does the source give for COC(=O)c1ccc(CSc2ccc3nnc(-c4ccc(F)cc4)n3n2)o1 here?
Answer: Its EC50 is inactive: > 30 µM.

Question: Which EC50 does the source give for OC(COc1ccc(OCC(O)CN2CCN(Cc3ccccc3)CC2)cc1)CN1CCN(Cc2ccccc2)CC1 (stereo unspecified) here?
Answer: Its EC50 is inactive: > 30 µM.

Question: With CC(C)Nc1nc(NC(N)=S)nc(NC(C)C)n1 as the compound, how does the EC50 read?
Answer: Its EC50 is inactive: > 30 µM.

Question: Which EC50 does the source give for COc1ccc(NC(=O)c2sc(SC)nc2N)cc1 here?
Answer: The EC50 was inactive: > 30 µM.

Question: Which EC50 does the source give for O=c1c2ccccc2cnn1-c1nc2ccccc2[nH]1 here?
Answer: The EC50 was active: 25.9 µM.

Question: For N/C(=N\NC(=O)c1ccc(Cl)cc1)c1cnccn1, which EC50 is on record?
Answer: The EC50 was inactive: > 30 µM.

Question: Which EC50 does the source give for COc1ccc(/C=C2\SC(=Nc3ccccc3OC)NC2=O)cc1 here?
Answer: The EC50 was inactive: > 30 µM.
